Results are given in words; binding and its absence hold for the method and conditions named. In cells and extracts the contact can be indirect. Some results given as binding are weak or reduced against the parent protein; the word gives no strength. Sequences can lack the tags named with a protein.
Assays:
[1] = target: T1, FLAG-tagged C-terminal domain (CTD) of Sestrin2 (SESN-C, AA 339-480) (human) (UniProt P58004); assay: co-IP; HEK293 co-transfected with FLAG-tagged Sestrin2 (WT or truncated) and HA-tagged ATP5A or HA-Parkin; IP with FLAG-conjugated beads, lysis buffer with 0.3% CHAPS, immunoblot with HA antibody
T1 sequence: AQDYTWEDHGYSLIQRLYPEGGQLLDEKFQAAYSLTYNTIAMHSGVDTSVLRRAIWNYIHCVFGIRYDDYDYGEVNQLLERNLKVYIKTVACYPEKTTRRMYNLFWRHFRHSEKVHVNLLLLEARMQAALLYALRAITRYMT

Amino acid sequences for entries named in this document (tags omitted). Residues count along the entry.
UniProt P25705, residues 44-553: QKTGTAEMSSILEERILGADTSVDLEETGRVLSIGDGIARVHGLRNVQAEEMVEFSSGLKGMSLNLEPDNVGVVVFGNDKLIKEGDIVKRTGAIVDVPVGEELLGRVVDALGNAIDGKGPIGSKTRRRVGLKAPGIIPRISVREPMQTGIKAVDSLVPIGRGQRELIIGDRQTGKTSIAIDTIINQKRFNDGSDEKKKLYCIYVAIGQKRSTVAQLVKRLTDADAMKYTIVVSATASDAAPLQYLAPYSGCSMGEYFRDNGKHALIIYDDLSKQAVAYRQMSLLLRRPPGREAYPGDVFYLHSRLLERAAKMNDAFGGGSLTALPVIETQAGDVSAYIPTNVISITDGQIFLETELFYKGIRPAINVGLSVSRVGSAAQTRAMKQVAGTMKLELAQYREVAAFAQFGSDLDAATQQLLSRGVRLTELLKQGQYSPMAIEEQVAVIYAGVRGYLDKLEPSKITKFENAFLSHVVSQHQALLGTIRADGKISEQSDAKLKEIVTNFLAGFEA
UniProt O60260: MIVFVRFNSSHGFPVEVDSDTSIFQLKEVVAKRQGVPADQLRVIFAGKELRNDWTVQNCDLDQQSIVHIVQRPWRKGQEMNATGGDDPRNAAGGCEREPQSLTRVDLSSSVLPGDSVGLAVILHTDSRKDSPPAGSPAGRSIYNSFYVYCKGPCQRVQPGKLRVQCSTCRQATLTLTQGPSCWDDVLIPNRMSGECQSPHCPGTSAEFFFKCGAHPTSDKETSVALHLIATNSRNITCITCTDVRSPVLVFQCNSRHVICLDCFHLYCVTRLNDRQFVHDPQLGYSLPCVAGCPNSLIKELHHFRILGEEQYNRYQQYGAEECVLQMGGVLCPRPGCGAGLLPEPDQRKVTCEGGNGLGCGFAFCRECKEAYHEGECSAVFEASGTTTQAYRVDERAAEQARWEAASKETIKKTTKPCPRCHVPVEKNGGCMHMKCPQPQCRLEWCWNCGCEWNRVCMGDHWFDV

[2] = target: T2, FLAG-tagged wild-type human Sestrin2 (SESN2^ABC) (human) (UniProt P58004); assay: as above
T2 sequence: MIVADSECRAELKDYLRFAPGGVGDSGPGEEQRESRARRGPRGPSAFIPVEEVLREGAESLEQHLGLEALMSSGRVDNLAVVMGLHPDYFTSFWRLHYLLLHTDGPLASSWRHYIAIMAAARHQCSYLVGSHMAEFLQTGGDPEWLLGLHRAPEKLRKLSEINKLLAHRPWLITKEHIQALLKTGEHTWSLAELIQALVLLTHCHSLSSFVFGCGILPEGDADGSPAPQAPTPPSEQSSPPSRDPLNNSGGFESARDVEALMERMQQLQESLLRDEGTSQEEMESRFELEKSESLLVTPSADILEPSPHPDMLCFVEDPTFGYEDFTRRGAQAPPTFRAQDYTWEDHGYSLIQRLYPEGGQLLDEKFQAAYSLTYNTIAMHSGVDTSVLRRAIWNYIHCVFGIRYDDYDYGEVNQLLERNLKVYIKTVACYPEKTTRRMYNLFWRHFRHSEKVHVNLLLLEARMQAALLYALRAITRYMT

binding [1] | binding [2] | Substance
binds | binds | HA-tagged human ATP5A (from UniProt P25705 44-553)
– | no binding | HA-Parkin (from UniProt O60260 1-465)

— paper PMC7504119
